Laboratory results taken from patent US20090180995A1, “NOVEL ANTICOAGULANT POLYPEPTIDES AND COMPLEX” (National University of Singapore, priority 2005, published 2009).
No constants are given. Whether binding was seen depends on the method and setting. Binding calls can cover weak binding; strength is not graded here.

Sequences of proteins named here, by UniProt entry; tags and fusion partners are left off. A change or cut given only in a name is not applied to a line headed by its entry.
UniProt P08709: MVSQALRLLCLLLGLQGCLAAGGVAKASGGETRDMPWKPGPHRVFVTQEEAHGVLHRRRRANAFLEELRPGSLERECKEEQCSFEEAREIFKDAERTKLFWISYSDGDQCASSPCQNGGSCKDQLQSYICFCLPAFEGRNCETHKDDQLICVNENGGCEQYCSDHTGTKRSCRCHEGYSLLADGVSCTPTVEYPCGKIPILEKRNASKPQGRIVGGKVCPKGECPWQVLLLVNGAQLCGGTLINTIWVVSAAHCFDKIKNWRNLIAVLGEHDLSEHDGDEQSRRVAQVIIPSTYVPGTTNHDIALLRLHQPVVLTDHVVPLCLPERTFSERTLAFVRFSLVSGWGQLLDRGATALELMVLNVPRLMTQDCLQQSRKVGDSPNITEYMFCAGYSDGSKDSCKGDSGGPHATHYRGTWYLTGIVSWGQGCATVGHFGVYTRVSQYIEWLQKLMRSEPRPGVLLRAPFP

Target: FVIIa (human) (UniProt P08709)
Assay: ITC

B1: hemextin AB complex (protein)
chain 1: LKCKNKLVPFLSKTCPEGKNLCYKMTMLKMPKIPIKRGCTDACPKSSLLVKVVCCNKDKCN
chain 2: LKCKNKVVPFLKCKNKVVPFLCYKMTLKKVPKIPIKRGCTDACPKSSLLVNVMCCKTDKCN
binding: binds
